The list shows a part of the results. Residues, ends and D or L forms follow the SMILES beside them. *: point of attachment. Cbz = O=C(OCc1ccccc1)*
How the values were obtained:
Assay in all cases: log2 fold change, soluble protein after heating vs DMSO (PISA); higher = thermal stabilisation; K562 cells, 10 uM, 30 min; active = over 0.2 and 3.5 SD of the protein, either way, in both replicates (recomputed)
erlotinib = compound: C#Cc1cccc(Nc2ncnc3cc(OCCOC)c(OCCOC)cc23)c1 [erlotinib]
Method in brief: (§1)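 Thermal stability values are relative to control samples and come from duplicates. They are expressed as log2 fold changes. For measurement, K562 cells (2×10^6 cells/mL) received 10 μM compound for 30 min, and aliquots were heated for 3 min over 48°C-58°C, pooled, and extracted at 4°C in PBS with 0.5% NP-40. Soluble protein, the supernatant after 21,000xg for 90 min, was quantified by TMTpro 16plex LC-MS/MS with equalised channel sums.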

Sequences of proteins named here, by UniProt entry; tags and fusion partners are left off. A change or cut given only in a name is not applied to a line headed by its entry.
UniProt Q96AB3: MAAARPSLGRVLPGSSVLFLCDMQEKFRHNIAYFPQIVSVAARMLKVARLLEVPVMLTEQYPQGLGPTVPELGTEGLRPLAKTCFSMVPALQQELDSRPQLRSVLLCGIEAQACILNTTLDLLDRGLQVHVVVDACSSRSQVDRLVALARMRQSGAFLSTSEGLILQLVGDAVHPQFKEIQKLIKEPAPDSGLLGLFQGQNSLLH
UniProt Q8TB96: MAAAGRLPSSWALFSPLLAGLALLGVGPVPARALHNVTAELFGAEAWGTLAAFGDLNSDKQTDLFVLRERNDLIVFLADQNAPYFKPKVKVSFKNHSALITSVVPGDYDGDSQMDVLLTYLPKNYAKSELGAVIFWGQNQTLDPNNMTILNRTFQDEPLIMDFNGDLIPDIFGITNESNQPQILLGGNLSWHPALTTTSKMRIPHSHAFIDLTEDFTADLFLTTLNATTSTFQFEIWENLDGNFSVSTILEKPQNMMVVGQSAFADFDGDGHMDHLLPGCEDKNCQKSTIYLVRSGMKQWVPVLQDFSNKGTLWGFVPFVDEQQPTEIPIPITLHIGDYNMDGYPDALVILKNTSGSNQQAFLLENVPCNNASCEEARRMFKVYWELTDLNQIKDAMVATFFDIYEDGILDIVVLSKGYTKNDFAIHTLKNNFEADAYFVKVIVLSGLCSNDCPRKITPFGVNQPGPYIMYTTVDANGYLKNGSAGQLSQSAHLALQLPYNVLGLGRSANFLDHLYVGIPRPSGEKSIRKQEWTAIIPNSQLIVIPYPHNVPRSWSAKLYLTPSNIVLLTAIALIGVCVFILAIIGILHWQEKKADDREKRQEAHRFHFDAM
UniProt O43837: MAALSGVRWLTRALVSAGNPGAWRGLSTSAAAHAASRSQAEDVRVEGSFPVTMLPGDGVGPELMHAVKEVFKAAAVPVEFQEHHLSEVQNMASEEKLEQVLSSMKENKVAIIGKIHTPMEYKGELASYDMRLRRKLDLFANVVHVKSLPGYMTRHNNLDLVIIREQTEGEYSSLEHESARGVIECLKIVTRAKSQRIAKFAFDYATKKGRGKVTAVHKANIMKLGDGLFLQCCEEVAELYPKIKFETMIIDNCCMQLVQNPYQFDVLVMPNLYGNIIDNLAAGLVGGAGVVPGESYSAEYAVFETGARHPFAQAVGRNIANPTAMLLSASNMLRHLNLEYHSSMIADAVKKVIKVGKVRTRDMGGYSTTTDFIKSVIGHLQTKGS
UniProt O00410: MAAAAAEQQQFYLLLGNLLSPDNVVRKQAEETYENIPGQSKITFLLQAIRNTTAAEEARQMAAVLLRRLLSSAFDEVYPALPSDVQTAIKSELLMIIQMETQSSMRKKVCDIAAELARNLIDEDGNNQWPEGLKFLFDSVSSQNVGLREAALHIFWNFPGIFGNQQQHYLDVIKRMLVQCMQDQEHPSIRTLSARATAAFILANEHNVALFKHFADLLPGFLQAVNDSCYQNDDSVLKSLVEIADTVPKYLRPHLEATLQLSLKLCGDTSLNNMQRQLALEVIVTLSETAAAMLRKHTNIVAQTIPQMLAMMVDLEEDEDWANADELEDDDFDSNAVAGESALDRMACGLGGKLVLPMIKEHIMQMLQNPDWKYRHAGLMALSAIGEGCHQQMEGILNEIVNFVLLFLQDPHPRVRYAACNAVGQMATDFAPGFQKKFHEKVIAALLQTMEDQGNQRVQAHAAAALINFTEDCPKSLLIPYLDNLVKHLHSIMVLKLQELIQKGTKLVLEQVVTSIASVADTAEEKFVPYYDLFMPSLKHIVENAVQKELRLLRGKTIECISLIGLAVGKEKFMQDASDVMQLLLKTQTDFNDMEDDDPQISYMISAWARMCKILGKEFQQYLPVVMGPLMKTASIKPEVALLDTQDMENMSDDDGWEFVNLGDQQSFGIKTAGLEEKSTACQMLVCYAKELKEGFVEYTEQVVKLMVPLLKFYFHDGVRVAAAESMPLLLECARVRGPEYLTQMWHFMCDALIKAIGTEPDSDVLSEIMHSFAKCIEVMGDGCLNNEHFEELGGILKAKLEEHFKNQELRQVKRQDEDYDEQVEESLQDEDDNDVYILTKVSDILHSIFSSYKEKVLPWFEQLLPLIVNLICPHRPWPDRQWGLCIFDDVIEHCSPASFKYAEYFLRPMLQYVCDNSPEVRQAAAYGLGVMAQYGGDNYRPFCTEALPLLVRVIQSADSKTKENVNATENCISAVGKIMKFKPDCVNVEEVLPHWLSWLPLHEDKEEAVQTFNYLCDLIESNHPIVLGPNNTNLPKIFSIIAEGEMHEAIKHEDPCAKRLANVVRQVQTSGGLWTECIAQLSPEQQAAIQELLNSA
UniProt P18084: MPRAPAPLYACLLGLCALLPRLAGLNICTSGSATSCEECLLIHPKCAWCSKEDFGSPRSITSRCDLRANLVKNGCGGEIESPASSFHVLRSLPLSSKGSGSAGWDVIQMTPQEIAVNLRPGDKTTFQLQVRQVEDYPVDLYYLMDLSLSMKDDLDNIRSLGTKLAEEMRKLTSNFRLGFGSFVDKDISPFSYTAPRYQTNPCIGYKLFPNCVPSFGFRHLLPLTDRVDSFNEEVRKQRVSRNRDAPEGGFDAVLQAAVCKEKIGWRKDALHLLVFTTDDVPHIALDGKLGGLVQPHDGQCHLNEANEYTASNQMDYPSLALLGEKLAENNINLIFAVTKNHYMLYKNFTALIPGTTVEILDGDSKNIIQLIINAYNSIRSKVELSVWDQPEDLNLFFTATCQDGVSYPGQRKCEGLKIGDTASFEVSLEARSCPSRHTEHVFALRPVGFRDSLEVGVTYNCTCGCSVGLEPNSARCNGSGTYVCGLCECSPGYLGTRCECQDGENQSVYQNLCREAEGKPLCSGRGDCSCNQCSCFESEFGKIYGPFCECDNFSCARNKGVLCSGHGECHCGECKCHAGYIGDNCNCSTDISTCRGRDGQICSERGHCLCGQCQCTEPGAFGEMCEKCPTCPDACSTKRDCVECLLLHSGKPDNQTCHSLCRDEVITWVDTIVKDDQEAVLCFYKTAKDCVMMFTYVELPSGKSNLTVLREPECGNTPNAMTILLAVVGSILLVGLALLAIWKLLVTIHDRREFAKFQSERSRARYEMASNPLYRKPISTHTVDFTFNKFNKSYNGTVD
UniProt Q13123, whole entry, looked up: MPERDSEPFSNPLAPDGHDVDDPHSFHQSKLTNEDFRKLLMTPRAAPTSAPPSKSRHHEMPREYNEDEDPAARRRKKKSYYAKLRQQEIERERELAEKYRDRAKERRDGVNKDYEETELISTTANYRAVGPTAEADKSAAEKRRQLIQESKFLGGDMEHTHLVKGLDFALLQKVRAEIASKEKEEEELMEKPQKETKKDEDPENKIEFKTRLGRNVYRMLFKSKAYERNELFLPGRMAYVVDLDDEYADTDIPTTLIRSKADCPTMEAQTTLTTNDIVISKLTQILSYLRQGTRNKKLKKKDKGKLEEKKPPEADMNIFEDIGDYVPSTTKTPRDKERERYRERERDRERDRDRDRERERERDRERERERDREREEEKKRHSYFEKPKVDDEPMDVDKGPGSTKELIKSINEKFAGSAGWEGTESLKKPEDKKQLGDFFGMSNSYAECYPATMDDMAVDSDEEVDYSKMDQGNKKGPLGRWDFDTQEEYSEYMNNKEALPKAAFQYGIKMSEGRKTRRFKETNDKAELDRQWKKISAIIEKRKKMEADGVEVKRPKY
UniProt O75874, whole entry, looked up: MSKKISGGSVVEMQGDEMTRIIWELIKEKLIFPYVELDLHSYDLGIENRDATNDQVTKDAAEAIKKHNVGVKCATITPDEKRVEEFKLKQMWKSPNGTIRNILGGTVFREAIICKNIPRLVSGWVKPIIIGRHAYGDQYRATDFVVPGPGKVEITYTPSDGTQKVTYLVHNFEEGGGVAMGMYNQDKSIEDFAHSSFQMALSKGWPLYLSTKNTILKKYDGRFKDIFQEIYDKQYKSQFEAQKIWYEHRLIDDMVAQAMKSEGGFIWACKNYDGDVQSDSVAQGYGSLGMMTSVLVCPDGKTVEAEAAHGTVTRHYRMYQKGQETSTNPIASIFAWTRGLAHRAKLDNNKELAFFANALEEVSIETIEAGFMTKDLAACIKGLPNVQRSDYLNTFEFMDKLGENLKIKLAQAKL
UniProt O75054: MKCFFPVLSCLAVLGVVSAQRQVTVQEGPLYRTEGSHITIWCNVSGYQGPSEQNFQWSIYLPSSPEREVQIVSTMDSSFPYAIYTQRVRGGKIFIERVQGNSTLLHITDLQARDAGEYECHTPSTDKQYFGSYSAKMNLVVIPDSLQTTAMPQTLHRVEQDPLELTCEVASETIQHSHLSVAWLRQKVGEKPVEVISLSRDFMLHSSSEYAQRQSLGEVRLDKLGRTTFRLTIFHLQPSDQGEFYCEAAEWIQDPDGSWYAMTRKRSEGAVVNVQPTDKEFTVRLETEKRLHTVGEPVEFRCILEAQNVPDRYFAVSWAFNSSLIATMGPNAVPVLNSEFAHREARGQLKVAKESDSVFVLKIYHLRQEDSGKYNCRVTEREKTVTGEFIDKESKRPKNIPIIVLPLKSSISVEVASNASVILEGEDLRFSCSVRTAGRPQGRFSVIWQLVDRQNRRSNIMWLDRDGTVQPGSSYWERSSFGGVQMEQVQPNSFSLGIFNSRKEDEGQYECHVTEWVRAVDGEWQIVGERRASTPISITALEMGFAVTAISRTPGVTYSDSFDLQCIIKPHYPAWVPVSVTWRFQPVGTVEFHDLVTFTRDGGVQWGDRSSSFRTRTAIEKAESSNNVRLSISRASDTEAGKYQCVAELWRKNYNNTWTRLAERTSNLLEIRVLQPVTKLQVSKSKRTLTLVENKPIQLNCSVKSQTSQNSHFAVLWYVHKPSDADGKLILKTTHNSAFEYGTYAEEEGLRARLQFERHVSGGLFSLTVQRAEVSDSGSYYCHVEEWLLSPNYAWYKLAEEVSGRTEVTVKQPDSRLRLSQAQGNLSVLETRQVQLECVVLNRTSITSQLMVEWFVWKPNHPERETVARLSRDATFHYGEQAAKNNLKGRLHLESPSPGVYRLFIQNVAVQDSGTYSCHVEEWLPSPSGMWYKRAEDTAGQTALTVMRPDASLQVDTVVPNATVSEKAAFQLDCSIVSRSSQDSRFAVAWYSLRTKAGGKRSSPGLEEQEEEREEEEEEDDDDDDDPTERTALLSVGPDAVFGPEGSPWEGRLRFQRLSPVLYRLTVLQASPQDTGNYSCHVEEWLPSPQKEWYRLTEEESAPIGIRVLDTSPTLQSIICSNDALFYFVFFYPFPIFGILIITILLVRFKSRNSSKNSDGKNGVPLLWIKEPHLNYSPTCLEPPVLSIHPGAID
UniProt P48200: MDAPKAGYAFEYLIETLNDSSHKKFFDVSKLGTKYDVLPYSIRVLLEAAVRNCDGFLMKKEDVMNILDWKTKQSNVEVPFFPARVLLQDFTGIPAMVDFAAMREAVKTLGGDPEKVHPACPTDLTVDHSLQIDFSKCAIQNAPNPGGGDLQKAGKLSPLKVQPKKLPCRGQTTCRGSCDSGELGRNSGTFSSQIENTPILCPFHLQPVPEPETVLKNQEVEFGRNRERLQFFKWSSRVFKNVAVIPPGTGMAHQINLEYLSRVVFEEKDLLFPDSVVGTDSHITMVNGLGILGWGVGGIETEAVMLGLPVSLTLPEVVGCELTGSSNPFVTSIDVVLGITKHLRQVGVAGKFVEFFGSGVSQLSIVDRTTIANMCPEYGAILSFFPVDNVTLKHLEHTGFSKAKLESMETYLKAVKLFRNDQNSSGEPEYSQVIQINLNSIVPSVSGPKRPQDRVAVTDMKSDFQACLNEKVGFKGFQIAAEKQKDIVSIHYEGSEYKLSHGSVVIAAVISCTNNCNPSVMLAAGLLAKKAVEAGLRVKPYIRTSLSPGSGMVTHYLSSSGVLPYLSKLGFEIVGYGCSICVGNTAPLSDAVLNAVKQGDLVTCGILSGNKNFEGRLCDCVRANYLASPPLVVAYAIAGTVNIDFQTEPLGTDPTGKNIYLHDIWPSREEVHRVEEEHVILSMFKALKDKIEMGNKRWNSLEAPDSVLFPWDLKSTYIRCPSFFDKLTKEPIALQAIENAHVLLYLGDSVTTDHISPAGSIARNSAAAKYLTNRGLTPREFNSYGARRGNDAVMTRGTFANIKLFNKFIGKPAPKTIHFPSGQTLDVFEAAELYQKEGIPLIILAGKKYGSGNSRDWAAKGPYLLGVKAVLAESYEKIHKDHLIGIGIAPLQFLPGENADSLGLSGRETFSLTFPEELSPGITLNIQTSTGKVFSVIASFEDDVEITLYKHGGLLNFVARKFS
UniProt Q70UQ0: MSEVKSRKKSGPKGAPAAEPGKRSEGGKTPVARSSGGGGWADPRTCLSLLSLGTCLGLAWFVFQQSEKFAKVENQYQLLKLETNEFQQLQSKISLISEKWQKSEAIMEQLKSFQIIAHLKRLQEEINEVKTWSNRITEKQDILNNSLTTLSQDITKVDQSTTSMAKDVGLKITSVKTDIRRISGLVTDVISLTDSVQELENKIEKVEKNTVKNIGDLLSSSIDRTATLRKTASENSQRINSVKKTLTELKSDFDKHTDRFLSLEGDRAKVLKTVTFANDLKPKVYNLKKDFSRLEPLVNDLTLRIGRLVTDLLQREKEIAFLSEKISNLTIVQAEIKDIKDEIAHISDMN

[1] = compound: C/C(=N\NC(=O)C1=CC(=CC=C1)S(=O)(=O)N2CCOCC2)/C3=C(C=CC(=C3)Cl)O
Method in brief: as §1

[2] = compound: C1=CC(=C(C=C1Cl)C2=NC3=NC=CN=C3C(=N2)NC4=CC=NC=C4)F
Method in brief: as §1

[3] = compound: C1=CC(=CC=C1C2=NC3=C(N2)C=C(C=C3)C(=O)N)OC4=CC=C(C=C4)Cl
Method in brief: as §1

[4] = compound: C1=CC2=C(C=CC(=C2)/C=C\3/C(=O)NC(=NCC4=CC=CS4)S3)N=C1
Method in brief: as §1

[5] = compound: C1=CC2=NC=CN=C2C=C1/C=C/3\C(=O)NC(=O)S3
Method in brief: as §1

[6] = compound: C1=CC=C(C=C1)C2=NC(=C(N2)C3=CC=NC=C3)C4=CC(=C(C=C4)Cl)O
Method in brief: as §1

[7] = compound: C1=CC=C2C(=C1)C3=NNC4=CC=CC(=C43)C2=O
Method in brief: as §1

[8] = compound: C1CCN(C1)C(=O)NC2=CC=CC(=C2)NC3=NC=C(C(=N3)NCCC4=CN=CN4)Br
Method in brief: as §1

[9] = compound: C1CN(CCC1(CC2=CC=C(C=C2)Cl)N)C3=NC=NC4=C3C=CN4
Method in brief: as §1

IRAK-1-4 Inhibitor I = compound: C1COCCN1CCN2C3=CC=CC=C3N=C2NC(=O)C4=CC(=CC=C4)[N+](=O)[O-] [IRAK-1-4 Inhibitor I]
Method in brief: as §1

ibrutinib = compound: C=CC(=O)N1CCC[C@@H](n2nc(-c3ccc(Oc4ccccc4)cc3)c3c(N)ncnc32)C1 [ibrutinib]
Method in brief: as §1

[10] = compound: CC(=O)c1cnc2ccc(-c3cc(Cl)c(O)c(Cl)c3)nc2c1N[C@H]1CC[C@H](CN(C)C)CC1
Method in brief: as §1

ralimetinib = compound: CC(C)(C)Cn1c(N)nc2ccc(-c3[nH]c(C(C)(C)C)nc3-c3ccc(F)cc3)nc21 [ralimetinib]
Method in brief: as §1

[11] = compound: CC(C)(O)CC(=O)NCCn1ccc2ncnc(Nc3ccc(Oc4cccc(C(F)(F)F)c4)c(Cl)c3)c21
Method in brief: as §1

[12] = compound: CC(C)C1=C2N=C(C=C(N2N=C1)NCC3=CC=CC=C3)NCCCCCCN
Method in brief: as §1

[13] = compound: CC(C)C[C@@H](C=O)NC(=O)[C@H](CC(C)C)NC(=O)[C@H](CC(C)C)NC(=O)OCc1ccccc1
Method in brief: as §1

pinometostat = compound: CC(C)N(C[C@H]1O[C@@H](n2cnc3c(N)ncnc32)[C@H](O)[C@@H]1O)[C@H]1C[C@@H](CCc2nc3cc(C(C)(C)C)ccc3[nH]2)C1 [pinometostat]
Method in brief: as §1

[14] = compound: CC1=C(C(CC(=O)N1)C2=CC=C(C=C2)C(F)(F)F)C(=O)NC3=C(C=C4C(=C3)C=NN4)F
Method in brief: as §1

[15] = compound: CC1=C(C2=C(C=C1)C(=O)C3=CC=CC=C3N2CCCN)C
Method in brief: as §1

Measured: log2 fold change

IMPAD1 (UniProt Q9NX62)
inactive: erlotinib -0.035 | [1] -0.029 | [2] 0.013 | [3] -0.014 | [4] 0.07 | [5] 0.06 | [6] 0.017 | [7] -0.001 | [8] 0 | [9] 0.021 | IRAK-1-4 Inhibitor I -0.002 | ibrutinib 0.007 | [10] 0.005 | ralimetinib -0.134 | [11] -0.043 | [12] 0.063 | [13] 0.077 | pinometostat -0.077 | [14] 0.016 | [15] -0.001

ISOC2 (UniProt Q96AB3)
inactive: erlotinib -0.01 | [1] 0.03 | [2] 0.133 | [3] 0.079 | [4] 0.027 | [5] 0.003 | [6] 0.063 | [7] 0.096 | [8] -0.088 | [9] 0.049 | IRAK-1-4 Inhibitor I -0.003 | ibrutinib 0.092 | [10] -0.021 | ralimetinib -0.004 | [11] -0.062 | [12] -0.055 | [13] -0.091 | pinometostat 0.041 | [14] 0.124 | [15] 0.055

ITFG1 (UniProt Q8TB96)
inactive: erlotinib 0.084 | [1] -0.13 | [2] 0.001 | [3] 0.008 | [4] -0.037 | [5] 0 | [6] 0.039 | [7] 0.063 | [8] -0.052 | [9] -0.037 | IRAK-1-4 Inhibitor I 0.04 | ibrutinib 0.147 | [10] -0.017 | ralimetinib -0.006 | [11] -0.015 | [12] -0.02 | [13] 0.06 | pinometostat 0.007 | [14] -0.079 | [15] -0.197

IDH3B (UniProt O43837)
inactive: erlotinib 0.002 | [1] 0.053 | [2] 0.115 | [3] 0.018 | [4] 0.017 | [5] 0.004 | [6] 0.09 | [7] 0.073 | [8] -0.033 | [9] 0.028 | IRAK-1-4 Inhibitor I 0.013 | ibrutinib 0.025 | [10] 0.021 | ralimetinib -0.011 | [11] -0.044 | [12] 0.037 | [13] -0.13 | pinometostat -0.068 | [14] 0.035 | [15] 0.022

INTS13 (UniProt Q9NVM9)
inactive: erlotinib 0.009 | [1] 0.02 | [2] 0.061 | [3] 0.057 | [4] 0.056 | [5] -0.011 | [6] -0.035 | [7] 0.01 | [8] -0.009 | [9] 0.041 | IRAK-1-4 Inhibitor I -0.001 | ibrutinib 0.023 | [10] -0.101 | ralimetinib -0.065 | [11] -0.094 | [12] -0.142 | [13] 0.001 | pinometostat -0.019 | [14] -0.037 | [15] 0.095

IPO5 isoform 3 (UniProt O00410)
inactive: erlotinib -0.014 | [1] 0.109 | [2] 0.043 | [3] 0.038 | [4] -0.001 | [5] 0.064 | [6] 0.06 | [7] 0.03 | [8] -0.038 | [9] -0.015 | IRAK-1-4 Inhibitor I 0.038 | ibrutinib -0.026 | [10] 0.023 | ralimetinib 0.014 | [11] -0.137 | [12] -0.177 | [13] -0.056 | pinometostat -0.015 | [14] 0.037 | [15] 0.055

ITGB5 (UniProt P18084)
inactive: erlotinib -0.042 | [1] 0.014 | [2] -0.015 | [3] -0.049 | [4] 0.013 | [5] 0.086 | [6] 0 | [7] 0.007 | [8] 0.016 | [9] 0.087 | IRAK-1-4 Inhibitor I 0.007 | ibrutinib 0.033 | [10] -0.045 | ralimetinib 0 | [11] -0.035 | [12] 0.075 | [13] -0.047 | pinometostat -0.029 | [14] 0.01 | [15] -0.027

ISYNA1 (UniProt Q9NPH2)
inactive: erlotinib -0.012 | [1] 0.006 | [2] 0 | [3] 0.018 | [4] -0.003 | [5] -0.018 | [6] -0.02 | [7] 0.003 | [8] 0.047 | [9] 0.055 | IRAK-1-4 Inhibitor I 0.015 | ibrutinib -0.069 | [10] -0.026 | ralimetinib -0.037 | [11] -0.007 | [12] 0.051 | [13] -0.012 | pinometostat -0.074 | [14] 0.074 | [15] 0.013

2 neighbouring records from above, quoted:
INTS13 (UniProt Q9NVM9)
inactive: erlotinib 0.009 | [1] 0.02 | [2] 0.061 | [3] 0.057 | [4] 0.056 | [5] -0.011 | [6] -0.035 | [7] 0.01 | [8] -0.009 | [9] 0.041 | IRAK-1-4 Inhibitor I -0.001 | ibrutinib 0.023 | [10] -0.101 | ralimetinib -0.065 | [11] -0.094 | [12] -0.142 | [13] 0.001 | pinometostat -0.019 | [14] -0.037 | [15] 0.095

IPO5 isoform 3 (UniProt O00410)
inactive: erlotinib -0.014 | [1] 0.109 | [2] 0.043 | [3] 0.038 | [4] -0.001 | [5] 0.064 | [6] 0.06 | [7] 0.03 | [8] -0.038 | [9] -0.015 | IRAK-1-4 Inhibitor I 0.038 | ibrutinib -0.026 | [10] 0.023 | ralimetinib 0.014 | [11] -0.137 | [12] -0.177 | [13] -0.056 | pinometostat -0.015 | [14] 0.037 | [15] 0.055

The listing continues.

ITPA (UniProt Q9BY32)
inactive: erlotinib 0.061 | [1] 0.035 | [2] -0.01 | [3] 0.009 | [4] 0.014 | [5] -0.018 | [6] 0.065 | [7] -0.005 | [8] -0.024 | [9] 0.042 | IRAK-1-4 Inhibitor I 0.042 | ibrutinib 0.055 | [10] -0.015 | ralimetinib -0.004 | [11] -0.024 | [12] 0.053 | [13] -0.048 | pinometostat -0.055 | [14] 0.007 | [15] 0.042

IK (UniProt Q13123)
inactive: erlotinib 0.049 | [1] 0 | [2] -0.069 | [3] 0 | [4] 0.055 | [5] -0.022 | [6] -0.016 | [7] -0.11 | [8] -0.004 | [9] -0.065 | IRAK-1-4 Inhibitor I -0.139 | ibrutinib -0.067 | [10] -0.06 | ralimetinib -0.007 | [11] 0.054 | [12] 0.031 | [13] 0.239 | pinometostat 0.038 | [15] 0.148

IDH1 (UniProt O75874)
inactive: erlotinib 0.021 | [1] -0.001 | [2] 0.075 | [3] 0 | [4] -0.005 | [5] -0.026 | [6] -0.02 | [7] -0.019 | [8] 0.026 | [9] 0.064 | IRAK-1-4 Inhibitor I 0.033 | ibrutinib 0.042 | [10] 0.015 | ralimetinib -0.037 | [11] -0.048 | [12] 0.024 | [13] -0.037 | pinometostat -0.055 | [14] 0.005 | [15] 0.005

IPO9 (UniProt Q96P70)
active: [15] 0.447
inactive: erlotinib -0.021 | [1] 0.073 | [2] 0.01 | [3] -0.061 | [4] 0.023 | [5] 0.096 | [6] -0.035 | [7] -0.024 | [8] -0.02 | [9] 0.052 | IRAK-1-4 Inhibitor I 0.024 | ibrutinib -0.082 | [10] 0.113 | ralimetinib 0.01 | [11] -0.079 | [12] -0.039 | [13] -0.068 | pinometostat 0.012

IGSF3 (UniProt O75054)
inactive: erlotinib 0.026 | [1] 0.004 | [2] 0 | [3] 0.039 | [4] -0.028 | [5] 0.006 | [6] -0.003 | [7] -0.123 | [8] -0.019 | [9] 0.084 | IRAK-1-4 Inhibitor I 0.048 | ibrutinib 0.059 | [10] -0.035 | ralimetinib -0.006 | [11] -0.016 | [12] 0.124 | [13] 0.073 | pinometostat 0.004 | [14] 0.009 | [15] 0.019

IREB2 (UniProt P48200)
inactive: erlotinib 0.121 | [1] -0.107 | [2] 0.063 | [3] 0.007 | [4] 0.002 | [5] -0.007 | [6] -0.037 | [7] 0.052 | [8] -0.091 | [9] 0.034 | IRAK-1-4 Inhibitor I -0.078 | ibrutinib -0.003 | [10] 0 | ralimetinib 0.073 | [11] -0.045 | [12] -0.09 | [13] 0.067 | pinometostat 0.084 | [14] 0.007 | [15] 0.021

IFI35 isoform 2 (UniProt P80217)
inactive: erlotinib 0.023 | [1] 0.031 | [2] 0.059 | [3] -0.012 | [4] -0.002 | [5] 0.009 | [6] 0.047 | [7] -0.006 | [8] -0.033 | [9] 0.041 | IRAK-1-4 Inhibitor I 0.032 | ibrutinib 0.01 | [10] 0.014 | ralimetinib -0.057 | [11] -0.038 | [12] 0.016 | [13] -0.006 | pinometostat -0.069 | [14] -0.023 | [15] 0.025

IKBIP isoform 4 (UniProt Q70UQ0)
inactive: erlotinib 0.009 | [1] -0.027 | [2] -0.013 | [3] 0.008 | [4] 0 | [5] 0.028 | [6] -0.054 | [7] -0.031 | [8] -0.003 | [9] -0.013 | IRAK-1-4 Inhibitor I -0.006 | ibrutinib -0.008 | [10] -0.008 | ralimetinib -0.004 | [11] 0.036 | [12] -0.048 | [13] -0.075 | pinometostat -0.013 | [14] 0.03 | [15] -0.026

Reference: the supplement of paper PMC10849652
